# Source: PubChem BioAssay AID248 (DTP/NCI, 2004)
# The list does not hold the whole screen: it gathers tests that were run many times, whatever their T/C, doses with no T/C, and many T/C values between a quarter and a half above the control. Other doses and runs of a compound stand elsewhere. T/C is the treated group as % of the vehicle group. Some doses have a count of surviving animals in place of a T/C: the source holds a T/C of zero for them, seemingly a mark for toxic or unscored doses. Some doses without a T/C left all or most animals alive at the check, yet need not have been tolerated: the source hardly ever lists a survival T/C far under the control, and the zero likely stands for such cases as well. Survivors were counted at the toxicity check, usually on the fifth day, unless a day is given; later deaths do not show. Schedules are NCI's codes, read here as Q, the interval in days (D) or hours (H), X, the number of doses.
# Tested on: L1210 leukemia ip in BDF1 mice, survival T/C
# Assay: NCI In Vivo Anticancer Drug Screen. Data for tumor model L1210 Leukemia (intraperitoneal) in B6D2F1 (BDF1) mice
# Settings: T/C endpoint: mean survival time, higher T/C = longer survival
# [1] = dose: 200.0 mg/kg/injection, schedule: Q01DX001 (ip), vehicle: saline
# [2] = dose: 400.0 mg/kg/injection, schedule: Q01DX001 (ip), vehicle: saline
# [3] = dose: 400.0 mg/kg/injection, schedule: Q04DX002 (ip), vehicle: saline with Tween-80
# [4] = dose: 100.0 mg/kg/injection, schedule: Q04DX003 (ip), vehicle: saline with Tween-80
structure (smiles),measurement,setting,value
CCCC1(CN2c3ccccc3Sc3ccccc32)CCN(CC)C1 (stereo not drawn),survivor count,"dose: 25.0 mg/kg/injection, schedule: Q01DX001 (ip), vehicle: saline",2 of 6
same,survivor count,"dose: 100.0 mg/kg/injection, schedule: Q01DX001 (ip), vehicle: saline",3 of 6
same,survivor count,"dose: 115.0 mg/kg/injection, schedule: Q04DX003 (ip), vehicle: saline",3 of 6
same,survivor count,"dose: 170.0 mg/kg/injection, schedule: Q04DX003 (ip), vehicle: saline",1 of 6
same,survivor count,[1],0 of 6
same,survivor count,[2],0 of 6
[Br][Bi]([Br])([c]1ccccc1)([c]1ccccc1)[c]1ccccc1,survivor count,"dose: 200.0 mg/kg/injection, schedule: Q04DX002 (ip), vehicle: Klucel (hydroxypropylcellulose) (HPC)",2 of 3
same,survivor count,"dose: 400.0 mg/kg/injection, schedule: Q04DX002 (ip), vehicle: Klucel (hydroxypropylcellulose) (HPC)",2 of 3
O=C(O)c1c(Br)c(Br)c(Br)c(Br)c1C(=O)Nc1ccc(Br)cc1,survivor count,"dose: 400.0 mg/kg/injection, schedule: Q01DX009 (ip), vehicle: Klucel (hydroxypropylcellulose) (HPC)",0 of 6
CCCCNc1nnc(N)s1,survivor count,[3],0 of 3
CC(C)(N)CCC(C)(C)NCCCN,survivor count,"dose: 400.0 mg/kg/injection, schedule: Q01DX009 (ip), vehicle: water",1 of 6
Br/C=C/C[N+]12CN3CN(CN(C3)C1)C2,survivor count,"dose: 100.0 mg/kg/injection, schedule: Q04DX003 (ip), vehicle: saline",0 of 6
same,survivor count,"dose: 200.0 mg/kg/injection, schedule: Q04DX003 (ip), vehicle: saline",0 of 6
same,survivor count,"dose: 400.0 mg/kg/injection, schedule: Q04DX003 (ip), vehicle: saline",0 of 6
CCCCCc1ccc(/C(C)=N/NC(=O)c2ccc[n+](C)c2)cc1,survivor count,"dose: 50.0 mg/kg/injection, schedule: Q04DX003 (ip), vehicle: saline with Tween-80",2 of 6
same,survivor count,[4],0 of 6
O=C(CN1CCOCC1)Nc1ccc(S(=O)(=O)c2ccc([N+](=O)[O-])cc2)cc1,survivor count,"dose: 300.0 mg/kg/injection, schedule: Q01DX001 (ip), vehicle: acetone",0 of 6
O=c1[nH]c2cc(Cl)ccc2c(CCl)c1Cl,survivor count,"dose: 150.0 mg/kg/injection, schedule: Q01DX009 (ip), vehicle: saline with Tween-80",3 of 6
same,survivor count,"dose: 200.0 mg/kg/injection, schedule: Q04DX003 (ip), vehicle: acetone",3 of 6
same,survivor count,"dose: 225.0 mg/kg/injection, schedule: Q01DX009 (ip), vehicle: saline with Tween-80",4 of 6
same,survivor count,"dose: 335.0 mg/kg/injection, schedule: Q01DX009 (ip), vehicle: saline with Tween-80",0 of 6
same,survivor count,"dose: 400.0 mg/kg/injection, schedule: Q04DX003 (ip), vehicle: acetone",0 of 6
COc1ccc(NC(=S)NC(=O)COc2ccccc2)cc1,survivor count,"dose: 200.0 mg/kg/injection, schedule: Q01DX009 (ip), vehicle: saline with Tween-80",2 of 3
same,survivor count,"dose: 400.0 mg/kg/injection, schedule: Q01DX009 (ip), vehicle: saline with Tween-80",1 of 6
same,survivor count,[3],1 of 3
C[C@]12C=CC(=O)C=C1CC[C@@H]1[C@@H]2[C@@H](O)C[C@@]2(C)[C@H]1CC[C@]2(O)C(=O)COC(=O)CCC(=O)O,survivor count,"dose: 1000.0 mg/kg/injection, schedule: Q01DX015 (sc), vehicle: steroid suspending solution",0 of 6
Cc1cc(=O)n2c3c(c4c(cc13)c(CBr)cc(=O)n4C)OC2,survivor count,"dose: 150.0 mg/kg/injection, schedule: Q01DX009 (ip), vehicle: Klucel (hydroxypropylcellulose) (HPC)",2 of 6
same,survivor count,"dose: 300.0 mg/kg/injection, schedule: Q01DX009 (ip), vehicle: Klucel (hydroxypropylcellulose) (HPC)",2 of 6
O=C1C=CC(=O)N1c1ccc(Cl)cc1Br,survivor count,[4],0 of 6
same,survivor count,"dose: 200.0 mg/kg/injection, schedule: Q04DX003 (ip), vehicle: saline with Tween-80",0 of 6
same,survivor count,"dose: 400.0 mg/kg/injection, schedule: Q04DX003 (ip), vehicle: saline with Tween-80",0 of 6
CC1(C)Cc2cccc(C(=O)CCCN3CCCCC3)c2O1,survivor count,[1],0 of 6
same,survivor count,[2],0 of 6
